The supplement of paper PMC10849652
The other results are listed elsewhere or left out.

Amino acid sequences for entries named in this document (tags omitted). A change or cut given only in a name is not applied to a line headed by its entry.
UniProt Q9UMX0, whole entry, looked up: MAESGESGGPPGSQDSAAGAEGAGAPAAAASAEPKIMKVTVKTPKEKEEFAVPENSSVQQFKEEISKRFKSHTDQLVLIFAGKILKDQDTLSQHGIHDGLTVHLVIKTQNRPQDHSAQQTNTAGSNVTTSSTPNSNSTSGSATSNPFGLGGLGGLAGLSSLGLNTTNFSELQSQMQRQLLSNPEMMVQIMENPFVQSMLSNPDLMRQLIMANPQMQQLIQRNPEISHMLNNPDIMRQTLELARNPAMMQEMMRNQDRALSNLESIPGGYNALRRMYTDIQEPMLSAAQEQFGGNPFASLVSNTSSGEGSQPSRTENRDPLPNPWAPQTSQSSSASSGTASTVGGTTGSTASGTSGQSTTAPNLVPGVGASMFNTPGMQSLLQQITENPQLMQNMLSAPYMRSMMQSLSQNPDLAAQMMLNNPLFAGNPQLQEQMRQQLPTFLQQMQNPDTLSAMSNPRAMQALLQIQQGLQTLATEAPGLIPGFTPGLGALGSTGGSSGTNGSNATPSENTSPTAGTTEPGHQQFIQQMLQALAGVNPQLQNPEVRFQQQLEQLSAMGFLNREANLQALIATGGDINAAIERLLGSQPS
UniProt P10599: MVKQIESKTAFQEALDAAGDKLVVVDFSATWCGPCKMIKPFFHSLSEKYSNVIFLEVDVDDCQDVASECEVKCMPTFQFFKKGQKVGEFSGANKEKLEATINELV
UniProt Q14CS0: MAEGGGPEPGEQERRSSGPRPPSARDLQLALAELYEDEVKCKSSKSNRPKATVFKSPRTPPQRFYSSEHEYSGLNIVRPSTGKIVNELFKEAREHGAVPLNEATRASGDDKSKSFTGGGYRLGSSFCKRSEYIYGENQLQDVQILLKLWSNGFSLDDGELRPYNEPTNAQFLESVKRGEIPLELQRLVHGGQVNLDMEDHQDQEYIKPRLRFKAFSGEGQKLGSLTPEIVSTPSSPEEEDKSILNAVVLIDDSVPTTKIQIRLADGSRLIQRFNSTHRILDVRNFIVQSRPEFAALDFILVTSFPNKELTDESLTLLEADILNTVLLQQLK
UniProt Q9NX01: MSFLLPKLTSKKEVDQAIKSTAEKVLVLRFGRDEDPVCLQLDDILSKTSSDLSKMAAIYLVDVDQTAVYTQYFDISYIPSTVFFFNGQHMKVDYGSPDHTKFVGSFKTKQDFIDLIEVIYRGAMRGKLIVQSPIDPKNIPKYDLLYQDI
UniProt Q96S82: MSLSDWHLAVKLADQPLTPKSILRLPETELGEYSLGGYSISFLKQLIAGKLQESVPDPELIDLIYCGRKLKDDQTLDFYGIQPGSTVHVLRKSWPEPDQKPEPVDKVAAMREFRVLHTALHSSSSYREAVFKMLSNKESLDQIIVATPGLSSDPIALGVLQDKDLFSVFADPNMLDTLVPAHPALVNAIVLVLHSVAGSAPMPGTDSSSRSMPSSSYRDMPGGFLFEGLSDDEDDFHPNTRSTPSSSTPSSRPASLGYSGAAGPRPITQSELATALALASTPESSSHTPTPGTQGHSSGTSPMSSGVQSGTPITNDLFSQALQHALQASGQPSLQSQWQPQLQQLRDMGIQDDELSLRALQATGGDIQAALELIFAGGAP
UniProt P60604: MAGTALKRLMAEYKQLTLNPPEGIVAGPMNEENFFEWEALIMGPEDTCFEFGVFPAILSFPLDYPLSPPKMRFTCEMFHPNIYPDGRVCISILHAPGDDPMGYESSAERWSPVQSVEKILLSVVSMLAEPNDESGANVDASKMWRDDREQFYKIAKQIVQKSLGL
UniProt Q15819: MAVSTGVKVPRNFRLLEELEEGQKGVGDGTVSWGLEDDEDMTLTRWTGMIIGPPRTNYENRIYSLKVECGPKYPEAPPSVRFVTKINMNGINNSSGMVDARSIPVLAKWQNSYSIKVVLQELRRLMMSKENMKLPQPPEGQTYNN
UniProt P61086: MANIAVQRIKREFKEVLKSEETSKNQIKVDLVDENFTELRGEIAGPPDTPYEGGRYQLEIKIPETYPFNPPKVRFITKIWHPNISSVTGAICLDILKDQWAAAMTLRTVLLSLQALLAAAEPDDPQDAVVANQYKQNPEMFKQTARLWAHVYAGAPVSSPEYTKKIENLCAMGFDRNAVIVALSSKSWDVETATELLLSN
UniProt Q9BSL1: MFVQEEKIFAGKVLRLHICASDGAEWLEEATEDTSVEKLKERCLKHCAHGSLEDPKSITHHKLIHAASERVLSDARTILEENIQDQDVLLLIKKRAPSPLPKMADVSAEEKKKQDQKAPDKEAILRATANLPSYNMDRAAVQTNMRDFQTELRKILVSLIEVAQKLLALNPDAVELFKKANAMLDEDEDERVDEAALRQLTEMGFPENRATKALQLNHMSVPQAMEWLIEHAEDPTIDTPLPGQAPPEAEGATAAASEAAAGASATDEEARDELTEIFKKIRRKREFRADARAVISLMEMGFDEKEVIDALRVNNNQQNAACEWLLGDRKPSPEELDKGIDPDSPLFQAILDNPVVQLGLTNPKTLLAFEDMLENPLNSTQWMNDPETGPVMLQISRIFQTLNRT
UniProt P40222: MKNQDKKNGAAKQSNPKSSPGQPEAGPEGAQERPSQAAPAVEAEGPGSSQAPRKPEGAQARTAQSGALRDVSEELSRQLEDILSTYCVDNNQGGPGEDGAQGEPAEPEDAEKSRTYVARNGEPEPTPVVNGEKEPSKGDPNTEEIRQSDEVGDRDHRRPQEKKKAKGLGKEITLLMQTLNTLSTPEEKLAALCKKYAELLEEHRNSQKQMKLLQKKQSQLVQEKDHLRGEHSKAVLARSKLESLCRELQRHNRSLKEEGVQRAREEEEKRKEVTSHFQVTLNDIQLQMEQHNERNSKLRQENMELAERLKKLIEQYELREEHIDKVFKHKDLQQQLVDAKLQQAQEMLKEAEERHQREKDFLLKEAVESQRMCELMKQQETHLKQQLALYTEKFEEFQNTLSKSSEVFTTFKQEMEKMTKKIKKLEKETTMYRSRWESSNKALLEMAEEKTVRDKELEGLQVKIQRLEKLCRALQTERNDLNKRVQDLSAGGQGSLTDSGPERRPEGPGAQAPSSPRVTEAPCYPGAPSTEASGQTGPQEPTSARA
UniProt P0CG48, whole entry, looked up: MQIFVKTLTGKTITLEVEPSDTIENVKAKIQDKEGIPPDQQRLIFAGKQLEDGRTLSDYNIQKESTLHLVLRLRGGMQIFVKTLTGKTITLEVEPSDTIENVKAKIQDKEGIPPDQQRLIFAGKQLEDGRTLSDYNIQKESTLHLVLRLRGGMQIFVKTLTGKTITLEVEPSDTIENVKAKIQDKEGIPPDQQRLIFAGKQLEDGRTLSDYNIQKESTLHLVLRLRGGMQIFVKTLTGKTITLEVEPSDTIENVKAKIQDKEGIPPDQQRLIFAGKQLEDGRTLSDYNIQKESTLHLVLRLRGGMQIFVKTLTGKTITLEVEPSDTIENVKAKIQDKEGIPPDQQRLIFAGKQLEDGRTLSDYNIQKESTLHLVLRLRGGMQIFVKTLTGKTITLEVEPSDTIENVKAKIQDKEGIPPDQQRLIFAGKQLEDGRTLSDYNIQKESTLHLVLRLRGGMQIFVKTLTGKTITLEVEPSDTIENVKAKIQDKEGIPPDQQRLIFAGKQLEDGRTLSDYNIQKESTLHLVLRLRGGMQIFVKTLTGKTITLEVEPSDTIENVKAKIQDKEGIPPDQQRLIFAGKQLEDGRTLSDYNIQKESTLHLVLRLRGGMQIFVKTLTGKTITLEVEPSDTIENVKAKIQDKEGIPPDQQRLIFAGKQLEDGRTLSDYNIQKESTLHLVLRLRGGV

Columns and labels:
Experiment in all cases: log2 fold change, soluble protein after heating vs DMSO (PISA); higher = thermal stabilisation; K562 lysate, 10 uM; active = over 0.2 and 3.5 SD of the protein, either way, in both replicates (recomputed)
[1] = compound: NCC(=O)Nc1ccc(-n2nc(C(F)(F)F)cc2-c2ccc3c(ccc4ccccc43)c2)cc1
Procedure, shortened: (§1)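 Quantification was by TMTpro 16plex LC-MS/MS with equalised channel sums, applied to the supernatant after 21,000xg for 90 min. Samples were crude K562 extract at 1 mg/mL protein in PBS pH 7.4 with 1 mM MgCl2, treated with 10 μM compound for 30 min, heated for 3 min across 48°C-58°C, pooled and brought to 0.5% NP-40 at 4°C. Values are log-two fold changes in thermal stability relative to solvent controls, from duplicates.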

vorinostat = compound: O=C(CCCCCCC(=O)Nc1ccccc1)NO [vorinostat]
Procedure, shortened: as §1

silmitasertib = compound: O=C(O)c1ccc2c(c1)nc(Nc1cccc(Cl)c1)c1ccncc12 [silmitasertib]
Procedure, shortened: as §1

[2] = compound: O=C1NC(=O)C(c2cnc3ccccn23)=C1c1cn2c3c(cc(F)cc13)CN(C(=O)N1CCCCC1)CC2
Procedure, shortened: as §1

entospletinib = compound: c1cn2cc(-c3ccc4cn[nH]c4c3)nc(Nc3ccc(N4CCOCC4)cc3)c2n1 [entospletinib]
Procedure, shortened: as §1

Measured: log2 fold change

UBQLN1 (UniProt Q9UMX0)
inactive: [1] -0.041 | vorinostat 0.133 | silmitasertib -0.045 | [2] 0.005 | entospletinib -0.043

TXN (UniProt P10599)
inactive: [1] -0.013 | vorinostat -0.027 | silmitasertib 0.002 | [2] 0.027 | entospletinib -0.02

UBXN2B (UniProt Q14CS0)
inactive: [1] 0.095 | vorinostat 0.085 | silmitasertib 0.053 | entospletinib -0.032

TXNL4B (UniProt Q9NX01)
inactive: [1] -0.055 | vorinostat 0.099 | silmitasertib 0.007 | [2] -0.025 | entospletinib 0.009

UBL7 (UniProt Q96S82)
inactive: [1] -0.033 | vorinostat 0.135 | silmitasertib -0.019 | [2] -0.022 | entospletinib -0.149

UBE2K (UniProt D6RDM7)
inactive: [1] 0.003 | vorinostat 0.019 | silmitasertib -0.031 | entospletinib -0.079

UBE2G2 (UniProt P60604)
inactive: [1] 0.091 | vorinostat -0.182 | silmitasertib -0.023 | [2] -0.01 | entospletinib 0.045

UBE2V2 (UniProt Q15819)
inactive: [1] -0.01 | vorinostat 0.119 | silmitasertib -0.018 | [2] 0.004 | entospletinib -0.01

UBE2K (UniProt P61086)
inactive: [1] -0.015 | vorinostat 0.11 | silmitasertib -0.018 | [2] 0.009 | entospletinib -0.002

UBAC1 (UniProt Q9BSL1)
inactive: [1] 0.015 | vorinostat 0.034 | silmitasertib -0.002 | [2] -0.003 | entospletinib -0.003

TXLNA (UniProt P40222)
inactive: [1] 0.006 | vorinostat 0.054 | silmitasertib -0.01 | [2] -0.008 | entospletinib 0.007

UBC (UniProt P0CG48)
inactive: [1] 0.035 | vorinostat 0.207 | silmitasertib -0.009 | [2] 0.063 | entospletinib -0.004
